PubChem BioAssay AID2685 (National Center for Advancing Translational Sciences (NCATS), 2010)
This is one part of the list. Shown are side measurements of this screen, not its main read-out; they come without a call. Compounds called inactive in the main read-out are mostly missing here. Potencies come from curve fits of mixed quality, noted in brackets.

Experiment: qHTS Assay for Lipid Storage Modulators in Drosophila S3 Cells;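 on cell number change: cells counted by Cell Tracker Red CMTPX staining in the red channel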
Conditions: BODIPY lipid droplet fluorescence, 18-24 h; for cell number change: measured here: cell count max response, cells fed with added oleic acid
Outline: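 Laser-scanning cytometry quantifies lipid droplet accumulation (500–530 nm total intensity; droplet/cell object ratio) in oleic acid-fed (400 uM added) Drosophila S3 cells treated with a concentration series. 20 uM Triacsin C defined 100% inhibition.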

[1] = measured here: lipid fluorescence (Fed channel) AC50, cells fed with added oleic acid
[2] = measured here: cell number channel AC50, cells fed with added oleic acid

| Structure (SMILES) | cell number change | AC50 [1] | AC50 [2] |
| --- | --- | --- | --- |
| CCN(C(=O)/C=C/c1cc(OC)c(OC)c(OC)c1)C1CCCCC1 | -2.19% | 0.651 µM [rising, full curve] |  |
| Cn1c(CO)cnc1S(=O)(=O)Cc1ccc(Cl)cc1 | -42.7% | 4.11 µM [falling, full curve] | 6.51 µM [falling, full curve] |
| COc1ccccc1N1CCN(C(=O)c2sc3ncn(CC(=O)N4CCC(C)CC4)c(=O)c3c2C)CC1 | 3.23% | 29.1 µM [falling, single point] | 0.259 µM [rising, full curve, poor fit] |
| Cc1ccc(Cl)cc1NC(=O)COC(=O)C1CC1 | 12.1% | 6.51 µM [rising, single point] | 2.59 µM [rising, single point] |
| C=COCCNC(=O)Nc1ccc(Cl)cc1Cl | 1.08% |  |  |
| COc1cc2nc(C3CCC3)n(NC(=O)COc3ccccc3)c(=O)c2cc1OC | -5.31% |  |  |
| C[C@H](NC(=O)c1ccc(Cl)cc1)C(=O)NNC(=O)c1cccs1 | -11.2% |  |  |
| CCOc1ccc(C(C)NC(=O)C2CCC2)cc1 (centres undefined) | -33.3% |  | 29.1 µM [falling, single point] |
| Cc1ccccc1CSc1nc2n(n1)C(c1cccs1)C1=C(CCCC1=O)N2 (centres undefined) | 9.11% | 0.731 µM [rising, single point] | 1.64 µM [rising, partial curve] |
| CCN(C(=O)c1coc(=O)c(Br)c1)c1ccc2c(c1)OCO2 | -13.4% | 0.146 µM [falling, full curve, poor fit] |  |
| O=S(=O)(c1ccc2c(c1)OCO2)N1CCN(c2nnnn2-c2ccccc2)CC1 | -40.2% |  |  |
| COc1ccc(S(=O)(=O)N2CCOCC2)cc1NC(=O)COC(=O)C1CC2CCCC(C1)C2=O (centres undefined) | -6.82% | 4.61 µM [falling, partial curve, poor fit] |  |
| O=C(CN1CCC(C(=O)c2ccc(Cl)cc2)CC1)Nc1ccc2c(c1)OCCO2 | 36.4% |  | 0.231 µM [rising, full curve, poor fit] |
| O=C(NCCC1=CCCCC1)c1ccc(Br)o1 | 78.8% | 2.06 µM [falling, partial curve] | 29.1 µM [rising, single point] |
| COc1ccc(C(=O)N=c2nc3ccccn3s2)cc1 | 19% |  |  |
| C[C@H](Nc1ccc(C(F)(F)F)cc1[N+](=O)[O-])C(=O)O | -10.7% | 2.91 µM [falling, full curve, poor fit] |  |
| CN(C)CCCN(C(=O)c1cccs1)c1nc(-c2ccccc2)cs1 | 27.9% | 6.51 µM [rising, partial curve] |  |

In a second layout: 2 of the compounds above
Structure (SMILES) | cell number change | AC50 [1] | AC50 [2]
Cc1ccc(Cl)cc1NC(=O)COC(=O)C1CC1 | 12.1% | 6.51 µM [rising, single point] | 2.59 µM [rising, single point]
C=COCCNC(=O)Nc1ccc(Cl)cc1Cl | 1.08% |  | 
